Measurements taken from the supplement of paper PMC7858590.
± gives the standard deviation of the averaged measurements. Over roughly 3,800 compounds, “cell shape (eccentricity) Z-score vs DMSO control” has its median near 1.1; the lowest 2% begin near -4.7. The list shows a part of the results.

Each compound was assayed on human monocyte-derived macrophages (M0) (assay: cell shape (eccentricity) Z-score vs DMSO control; higher = more elongated, M2-like morphology). Conditions: 20 µM; 24 h; macrophage state: M0 (M-CSF).

In order of falling “cell shape (Z-score)” value:
1. O=c1cc(-c2cccc3c2Sc2ccccc2S3)oc(N2CCOCC2)c1  7.53
2. COc1cccc(NC(=O)C=Cc2ccc(Cl)cc2)c1  5.64
3. CC(=O)Nc1ccc(C(=O)Nc2ccc(F)cc2N)cc1  5.63
4. COc1ccc(CN(CCN(C)C)c2ncccn2)cc1  4.79
5. COc1ccc(-c2cc(=O)c3c(OC)c(OC)c(OC)cc3o2)cc1OC  3.99
6. C/C=C/C(=O)N(CC)c1ccccc1C  2.27
7. CC(=O)OCC(=O)[C@H]1CCC2C3CCC4=CC(=O)CC[C@]4(C)C3CC[C@@]21C (stereo not given in full)  2.26
8. COC(=O)C1=CO[C@@H](O[C@@H]2O[C@H](CO)[C@@H](O)[C@H](O)[C@H]2O)[C@H]2[C@@H]1[C@H](OC(=O)/C=C/c1ccc(O)cc1)C[C@]2(C)OC(C)=O  2.25
9. COc1c2ccoc2cc2oc(C)cc(=O)c12  1.8
10. CCC[C@@H]1C[C@@H](C(=O)N[C@@H](C2O[C@H](SC)[C@H](O)[C@@H](O)[C@H]2O)[C@H](C)Cl)N(C)C1 (stereo not given in full)  1.78
11. COc1ccc(S(=O)(=O)N2c3ccc(Cl)cc3[C@](O)(c3ccccc3Cl)[C@@H]2C(=O)N2CCC[C@H]2C(N)=O)cc1OC  1.6
12. CN1C(C(=O)Nc2ccccn2)C(=O)c2ccccc2S1(=O)=O (stereo not given)  1.33
13. CN1CCN(C2=Nc3cc(F)ccc3Cc3ccccc32)CC1  1.25
14. O=c1c(O[C@@H]2O[C@H](CO)[C@H](O)[C@H](O)[C@H]2O)c(-c2ccc(O)cc2)oc2cc(O)cc(O)c12  1.22
15. C=C[C@@]1(C)CC(=O)[C@@]2(O)[C@](C)(O1)[C@@H](O)[C@@H](O)C1C(C)(C)CC[C@H](O)[C@@]12C (stereo not given in full)  0.963
16. C=C[C@H]1[C@H](O[C@@H]2O[C@H](CO)[C@@H](O)[C@H](O)[C@H]2O)OC=C2C(=O)OCC[C@]21O  0.75
17. N#CC(C#N)=C(N)/C(C#N)=C/c1cc(O)c(O)c(O)c1  0.676
18. Nc1nc(Cl)nc2c1ncn2[C@@H]1O[C@H](CO)[C@@H](O)[C@@H]1F  0.675
19. Cn1cnc2cc3c(Nc4cccc(Br)c4)ncnc3cc21  0.448
20. CCc1ccc2c(-c3cccc(Cl)c3)nc(=O)n(CC)c2n1  0.205
21. COc1c(O[C@@H]2O[C@H](C(=O)O)[C@@H](O)[C@H](O)[C@H]2O)cc2oc(-c3ccc(O)cc3)cc(=O)c2c1O  -0.54 ± 3.8
22. CCCCS(=O)(=O)N[C@@H](Cc1ccc(OCCCCC2CCNCC2)cc1)C(=O)O  -0.679
23. COc1c(C2OCC(O)C(O)C2O)c(O)cc2oc(-c3ccc(OC4OC(C)C(O)C(O)C4O)cc3)cc(=O)c12 (stereo not given)  -1.02
24. CC1C(=O)c2cc3c(cc2CCN(C)Cc2c1ccc1c2OCO1)OCO3 (stereo not given)  -1.3 ± 0.27
25. O=C1c2ccccc2-c2nc3nonc3nc21  -6.25
